Library screen at single concentrations

The filed quantity is “Percent Effect” (%).
The record does not define 0% and 100%; most values in the screen are far below 50% and negative numbers occur (in some assays of this library far below -100).
The compounds are a random part of those screened.
Two or more numbers in one place are separate tests of the same structure; such repeats can differ widely.

A: 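Growth of Mycobacterium tuberculosis over 4 days (cholesterol / DPPC medium with tyloxapol); the read-out is not stated. Concentration: 50 µM. Direction is inferred from retests: higher values go with more growth inhibition. Of about 69,000 compounds tested this way, about 370 (0.54%) reached 50% or more in at least one test.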
B: 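Growth of Mycobacterium tuberculosis over 3 days (7H9 medium with glucose and tyloxapol); the read-out is not stated. Tested at 50 µM. Higher reads as more growth inhibition (inferred: compounds with an IC50 in retests scored well above the rest). Of about 69,000 compounds tested this way, about 760 (1.1%) reached 50% or more in at least one test.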

Cc1ccc(N2CCCC(NCc3ccc(C)s3)C2)nn1 (centres undefined) gave A: -9.258%; B: -11.22%. Result for O=C(c1ccoc1)N1CCCN(CC2CCOc3ccccc3C2)CC1 (centres undefined) was A: -19.19%; B: 4.264% & -17.36%. CC(c1nnc(-c2cccs2)o1)N1CCn2c(nnc2C2CC2)C1 (centres undefined) gave A: -11.17%; B: 16.15%. CC(C)c1noc(CCCC(=O)N2CCN(Cc3ccccn3)CC2)n1 gave A: -1.58%; B: -14.03% & -1.614%. Result for CNC(=O)Cc1ccc(NC(=O)NC2(c3cccc(F)c3)CC2)cc1 was A: -0.4145%; B: 13.27% & 33.43%. With COc1cc(COCC2CCN(Cc3ccccn3)CC2)cc(OC)c1.O=C(O)C(=O)O the screen gave A: 0.8464%; B: -4.098%.

For NC(=O)c1ccc(OCCCN2CCC3(CC2)OCCCC3O)cc1 (centres undefined) the result was A: 0.3463%; B: 15.25%. CC(C)c1ccc(OCn2ccc(C(=O)N3CCCC3)n2)cc1 gave A: 53.14%; B: 54.95%. For Cc1cc(C(=O)N2CCC(O)(Cn3c(C)cc4ccncc43)CC2)on1 the result was A: 0.1158%; B: 24.64%. Cc1csc(N2CCN(CCc3ccccn3)CC2C)n1 (centres undefined) gave A: -2.247%; B: 13.2% & 15.89%. CN(Cc1ccccc1)C1COC2(CCN(Cc3nccs3)CC2)C1.O=C(O)C(F)(F)F (centres undefined) read A: 17.02%; B: 22.95%. For CCOc1cccc(COC(=O)c2cc(Cl)ccn2)n1 the result was A: 24.73%; B: 49.76%.

Result for O=C(CN(Cc1cccs1)C1CCS(=O)(=O)C1)NCCc1cccs1 (centres undefined) was A: -5.342%; B: 3.951%. With CN(Cc1nc(Cc2cccc(C(F)(F)F)c2)no1)C1CCCCC1 the screen gave A: 42.76%; B: 14.71% & 56.49%. For [H][C@]12CCN(C(=O)NC3CCCC3)CC[C@@]1([H])S(=O)(=O)N(CC(C)C)C2 the result was A: -12.55%; B: 7.427%. For CCN1CCN(c2ccc(C(=O)NC(C)CCOC)cc2)CC1 (centres undefined) the result was A: -0.7084%; B: -0.2443%. Result for Cn1ccnc1COc1ccc(COC(=O)C2CCCO2)cc1 (centres undefined) was A: -11.63%; B: -14.31%. c1ccc2c(Cc3nnc([C@H]4CCNC4)o3)c[nH]c2c1 read A: 19.98%; B: -15.56% & -1.419%.

For O=c1[nH]ccn1CCCN1CC=C(c2cnn(-c3ccccc3)c2)CC1 the result was A: -9.976% & 16.63%; B: 16.5%. For CCC1CCCCN1C(=O)c1ccnc(N(C)C)c1 (centres undefined) the result was A: -0.7797%; B: -4.111%. For CC(NCc1cc(F)ccc1F)c1ccc(OCC(=O)NC2CC2)cc1 (centres undefined) the result was A: -3.45%; B: 17.11%. For CC(C)(C)c1csc(CNC(=O)C2NCCc3[nH]cnc32)n1 (centres undefined) the result was A: -11.89%; B: -7.78% & 0.4489%. CN(C)Cc1cc(C2CCCN(S(=O)(=O)c3cccc(Cl)c3)C2)nn1C (centres undefined) gave A: -10.76%; B: -16.04%. With O=C(NCc1ccccn1)NC1CCOc2ccccc21 (centres undefined) the screen gave A: -0.5258%; B: 11.9%.

With O=C(O)C(F)(F)F.O=C(O)C(F)(F)F.[H][C@@]12C[C@H](C(=O)N3CCCO3)CN(Cc3cccnc3)[C@]1([H])CCO2 the screen gave A: -24.55%; B: 13.13%. With CCS(=O)(=O)N(C)C1CCN(C(=O)c2cc(C)cc(C)c2)CC1 the screen gave A: 1.454%; B: -6.864% & -4.465%. With Cc1oc(-c2nc(C#N)c(NCC(C)C)o2)cc1S(=O)(=O)N1CCCC1 the screen gave A: -20.18%; B: -16.69%. With Cc1cc(S(C)(=O)=O)c(C)c(S(=O)(=O)N2CCCC(C)C2)c1 (centres undefined) the screen gave A: -1.367%; B: 14.9%. Result for O=C1CCOCCN1Cc1ccc(Cl)c(Cl)c1 was A: -6.501%; B: 1.945% & -10.04%. For CCc1ccccc1-n1cc(O)c(C(=O)N2CCCCC2)n1 the result was A: -1.407%; B: 38.68%.

O=S(=O)(Cc1ccccc1)c1nnc(N2CCOCC2)s1 read A: -1.651%; B: 9.138% & -1.199%. Result for CCC(CC)c1cc(CNC(=O)N2CCCC(c3ncc[nH]3)C2)on1 (centres undefined) was A: -8.485%; B: 5.581% & 10.38%. For CN(C)c1ccccc1C(=O)N1C[C@@H](CN2CCCCC2)[C@@H](CO)C1 the result was A: -1.011%; B: -22.99%. COc1cc2nc(C)n(CC(=O)O)c(=O)c2cc1OC read A: 5.11%; B: -2.41%. Result for O=S(=O)(c1ccccc1Cl)N1CCCC(c2ncc[nH]2)C1 (centres undefined) was A: 2.869% & 26.3%; B: -10.28%.

The last 2 entries again:

| SMILES | A | B |
|---|---|---|
| `COc1cc2nc(C)n(CC(=O)O)c(=O)c2cc1OC` | 5.11 | -2.41 |
| `O=S(=O)(c1ccccc1Cl)N1CCCC(c2ncc[nH]2)C1` (centres undefined) | 2.869 & 26.3 | -10.28 |

From ChEMBL document CHEMBL3988442, “University of Dundee, Small-Polar-MMV Screening Library” (2021).